Laboratory results: PubChem BioAssay AID1053208 (Peter MacCallum Cancer Centre, 2014)

- Screen: 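Find knock-downs that sensitise mouse osteosarcoma cells to doxorubicin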 (primary screen)
- Cells: mouse osteosarcoma cells, early-passage culture from an engineered mouse model of fibroblastic bone tumour
- Reagents: siRNA pool against mouse genes, 40 nM
- Timing: about 120 h (48 h before drug, then 72 h with drug)
- Challenge: doxorubicin 100 nM for 72 h, roughly 30-40% inhibitory dose
- Read-out: 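Viability read as ATP luminescence after 72 h of 100 nM doxorubicin or none, duplicate wells averaged, scaled to non-targeting siRNA, then expressed as robust z-scores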
- Scale: viability z-score with doxorubicin: higher = more viable cells under doxorubicin; viability z-score without drug: higher = more viable cells with knock-down alone
- Call rule: 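a pool counts as active when its viability z-score with doxorubicin is -2 or below and its z-score without drug lies between -2 and 2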
The deposit covers about 17,000 reagents; shown is a part drawn at random. Over the whole deposit, 788 (4.7%) are marked active. 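Calls rest on z-score classes alone; an extra cut-off of viability at most 70% of control was not applied to them.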 Not all columns of the deposit are shown.

For Alms1 (GeneID 236266), how do the results read?
combined z-score class: high cell count with doxorubicin only; viability z-score with doxorubicin: 2.36; viability z-score without drug: 0.67; Outcome: inactive

For Cd300ld3 (GeneID 382551), how do the results read?
combined z-score class: no change with or without drug; viability z-score with doxorubicin: -0.11; viability z-score without drug: -0.17; Outcome: inactive

Which result is listed for Or8b56 (GeneID 258812)?
combined z-score class: low cell count with and without drug; viability z-score with doxorubicin: -2.25; viability z-score without drug: -2.02; Outcome: inactive

What is on record for Arid5b (GeneID 71371)?
combined z-score class: no change with or without drug; viability z-score with doxorubicin: -0.67; viability z-score without drug: 0.51; Outcome: inactive

Which result is listed for Casc3 (GeneID 192160)?
combined z-score class: no change with or without drug; viability z-score with doxorubicin: -1.46; viability z-score without drug: -0.84; Outcome: inactive

For St3gal3 (GeneID 20441), how do the results read?
combined z-score class: no change with or without drug; viability z-score with doxorubicin: 0; viability z-score without drug: -0.17; Outcome: inactive

For Zfp189 (GeneID 230162), what was measured?
combined z-score class: no change with or without drug; viability z-score with doxorubicin: 0.79; viability z-score without drug: 1.18; Outcome: inactive

With Pgap1 (GeneID 241062), what does the deposit list?
combined z-score class: no change with or without drug; viability z-score with doxorubicin: -0.67; viability z-score without drug: 1.85; Outcome: inactive

For Fasl (GeneID 14103), how do the results read?
combined z-score class: no change with or without drug; viability z-score with doxorubicin: 1.57; viability z-score without drug: 1.35; Outcome: inactive

What did the screen give for Tmod2 (GeneID 50876)?
combined z-score class: no change with or without drug; viability z-score with doxorubicin: -0.56; viability z-score without drug: -0.51; Outcome: inactive

With Zp2 (GeneID 22787), how do the results read?
combined z-score class: no change with or without drug; viability z-score with doxorubicin: 0; viability z-score without drug: -0.51; Outcome: inactive

Which result is listed for 1700010I14Rik (GeneID 66931)?
combined z-score class: no change with or without drug; viability z-score with doxorubicin: -0.9; viability z-score without drug: -0.84; Outcome: inactive

With Tmem98 (GeneID 103743), what was measured?
combined z-score class: no change with or without drug; viability z-score with doxorubicin: 0.79; viability z-score without drug: 0.51; Outcome: inactive

What is on record for Arhgap22 (GeneID 239027)?
combined z-score class: no change with or without drug; viability z-score with doxorubicin: 0.22; viability z-score without drug: 0.34; Outcome: inactive

With Anxa4 (GeneID 11746), what does the deposit list?
combined z-score class: no change with or without drug; viability z-score with doxorubicin: -1.12; viability z-score without drug: 0.67; Outcome: inactive

For Rnf138 (GeneID 56515), how do the results read?
combined z-score class: no change with or without drug; viability z-score with doxorubicin: -0.9; viability z-score without drug: -1.01; Outcome: inactive

With Polb (GeneID 18970), what does the deposit list?
combined z-score class: no change with or without drug; viability z-score with doxorubicin: 0.79; viability z-score without drug: 0.34; Outcome: inactive

With Rgs7bp (GeneID 52882), what was measured?
combined z-score class: high cell count without drug only; viability z-score with doxorubicin: -0.22; viability z-score without drug: 2.19; Outcome: inactive

What did the screen give for Cyth4 (GeneID 72318)?
combined z-score class: no change with or without drug; viability z-score with doxorubicin: 0.79; viability z-score without drug: 0.84; Outcome: inactive

With Tmprss7 (GeneID 208171), what does the deposit list?
combined z-score class: no change with or without drug; viability z-score with doxorubicin: -0.67; viability z-score without drug: -0.17; Outcome: inactive

How did the screen score Ndufb4 (GeneID 68194)?
combined z-score class: no change with or without drug; viability z-score with doxorubicin: -1.57; viability z-score without drug: -0.84; Outcome: inactive

With Sod3 (GeneID 20657), what was measured?
combined z-score class: no change with or without drug; viability z-score with doxorubicin: 1.12; viability z-score without drug: 1.18; Outcome: inactive

How did the screen score Ebf3 (GeneID 13593)?
combined z-score class: no change with or without drug; viability z-score with doxorubicin: -0.9; viability z-score without drug: 0.17; Outcome: inactive

For Eva1a (GeneID 232146), what was measured?
combined z-score class: no change with or without drug; viability z-score with doxorubicin: 0.45; viability z-score without drug: -0.51; Outcome: inactive

Which result is listed for Galnt17 (GeneID 212996)?
combined z-score class: no change with or without drug; viability z-score with doxorubicin: 0; viability z-score without drug: -0.67; Outcome: inactive

For 4930503E14Rik (GeneID 74954), what was measured?
combined z-score class: low cell count with doxorubicin only; viability z-score with doxorubicin: -2.25; viability z-score without drug: -1.01; Outcome: active

How did the screen score Cdk10 (GeneID 234854)?
combined z-score class: no change with or without drug; viability z-score with doxorubicin: 0; viability z-score without drug: -0.84; Outcome: inactive

For Slitrk5 (GeneID 75409), what does the deposit list?
combined z-score class: no change with or without drug; viability z-score with doxorubicin: 0.22; viability z-score without drug: 0.17; Outcome: inactive

Entries listed so far whose target name begins with Z or z:
Zfp189 (GeneID 230162): combined z-score class = no change with or without drug; viability z-score with doxorubicin = 0.79; viability z-score without drug = 1.18; Outcome = inactive
Zp2 (GeneID 22787): combined z-score class = no change with or without drug; viability z-score with doxorubicin = 0; viability z-score without drug = -0.51; Outcome = inactive
